The whole screen tested about 340,000 compounds, of which about 4,500 (1.3%) were called active. The inconclusive results got no clear call from the source; some entries with a clear call stand among them for comparison. The call rests on the fitted dose curve; in most records, active means well fitted inhibition curve with a large enough effect; inconclusive means small, poorly fitted or top-dose-only effect, or another doubt; inactive means no such curve, though single readings can be large or run the other way. Potencies beside an inconclusive call are fits to weak or partial responses and may not hold up.
What follows are compounds tested against DNA polymerase beta (Homo sapiens) (UniProt P06746) (assay: qHTS Assay for Inhibitors of DNA Polymerase Beta). Conditions: Pol beta primer extension/strand displacement, fluorescence kinetic; activity change, negative = inhibition: at 114 µM (top of the series).
Description: The base excision repair system in human cells is a target for therapeutic modulation of the response to irradiation treatment and DNA-damaging drugs. A key enzyme in this system is the bi-functional DNA polymerase known as DNA polymerase Beta (Pol Beta). The following is a homogeneous kinetic assay to study the primer extension and strand-displacement reaction catalyzed by pol beta.
A stepwise description of the 1536-well assay is shown in next Table. Three microliters of reagents (buffer in column 3 and 4 as negative control and 10 nM Pol beta in columns 1, 2, and 5-48) was dispensed into 1,536-well black solid-bottomed plate. Compounds (23 nL) were transferred via Kalypsys pin tool equipped with 1536-pin array (10 nL slotted pins, V&P Scientific, San Diego, CA). The plates were incubated for 15 min at room temperature, and 1 uL substrate (50 nM final concentration) were added to start the reaction and immediately read at 0 min read on Viewlux reader. The plate were further incubated for 10 min at room temperature, and then read on Viewlux again. Throughout the screen, reagent bottle and all liquid lines were chilled and made light-tight to minimize reagent degradation. All screening operations were performed on a fully integrated robotic system (Kalypsys, San Diego, CA) containing one RX-130 and two RX-90 anthropomorphic robotic arms (Staubli, Duncan, SC). Library plates were screened starting from the lowest and proceeding to the highest concentration, and a double-dipping step of the highest concentration was required to access higher concentrations of compounds. Vehicle-only plates, with DMSO being pin-transferred to the entire column 5-48 compound area, were inserted uniformly at the beginning and the end of each library in order to monitor for and record any shifts in the background, which can be affected by reagent dispensers or loss in enzyme activity overtime. Screening data were corrected, normalized, and concentration-effect relationships were derived by using publicly-available curve fitting algorithms developed in-house (http://ncgc.nih.gov/pub/openhts). A four parameter Hill equation was fitted to the concentration-response data by minimizing the residual error between the modeled and observed responses.
On the % scale 0 is the no-effect control and ±100 the full control effect; potency means the concentration at half of the fitted maximal effect.

Row | Structure (SMILES) | Potency | activity change, negative = inhibition
1 | COc1ccc2ccccc2c1CNCCc1ccccc1 | inconclusive: 20 µM [inhibitor, single point] | –
2 | CCOc1cc(-c2ccc(N)c(OCC)c2)ccc1N | inconclusive: 0.141 µM [inhibitor, full curve, poor fit] | –
3 | C=CCNC(=O)c1c(N)n(Cc2ccco2)c2nc3ccccc3nc12 | inconclusive: 1.41 µM [inhibitor, full curve] | –
4 | Cc1cccc(N2C(=O)NC(=O)/C(=C/c3ccc(-c4ccc(C(=O)O)c(Cl)c4)o3)C2=O)c1 | inactive | –
5 | CCN1C(=O)/C(=C/c2ccc3c(c2)CCN3CCCCl)C(=O)NC1=S | active: 28.2 µM | –
6 | COc1cccc(N2C(=O)NC(=O)/C(=C\c3ccc([N+](=O)[O-])s3)C2=O)c1 | inconclusive: 89.1 µM [inhibitor, single point] | –
7 | Nc1cc2nc3ccccc3nc2cc1N | inconclusive: 3.98 µM [inhibitor, full curve, poor fit] | –
8 | O=c1[nH]c(=S)[nH]c(O)c1N=Nc1ccc(-c2ccccc2)cc1[N+](=O)[O-] | inconclusive: 89.1 µM [inhibitor, single point] | –
9 | O=C(COc1ccccc1F)N1CCN(Cc2cc(=O)n3nc(-c4ccccc4Cl)sc3n2)CC1 | inactive | –
10 | COC(=O)Cn1cc(/C=C2\C(=O)NC(=O)N(c3ccc(OC)cc3)C2=O)c2ccccc21 | inactive | –
11 | O=[N+]([O-])c1ccc(N2CCCCCC2)c2nonc12 | active: 20 µM | –
12 | CCOc1ccc(N2C(=O)/C(=C/c3ccc(C)o3)C(=O)NC2=S)cc1 | active: 28.2 µM | –
13 | CCOC(=O)N1CCN(Cc2ccccc2F)CC1 | inconclusive: 89.1 µM [inhibitor, single point] | –
14 | O=C1NC(=O)C(=Cc2ccc(OCCOc3ccc([N+](=O)[O-])cc3)cc2)C(=O)N1 | inconclusive: 39.8 µM [inhibitor, full curve, poor fit] | –
15 | O=C1C(=O)c2cccc3cccc1c23 | inactive | –
16 | O=c1[nH]c(=O)n(-c2ccccc2)c(O)c1/C=C/C=Nc1ccccc1 | inconclusive: 39.8 µM [inhibitor, single point] | –
17 | CN1C(=O)N(C)C(=O)C2(Cc3c(nc4ccccn4c3=O)N3CCC(Cc4ccccc4)CC32)C1=O (centres undefined) | inactive | –
18 | COc1ccc(CN2C(=O)NC(=O)/C(=C/c3ccc([N+](=O)[O-])o3)C2=O)cc1 | active: 6.31 µM | –
19 | O=C(Nc1ccc(F)cc1F)c1cccn(Cc2ccccc2)c1=O | inactive | –
20 | CCN1C(=O)NC(=O)/C(=C/c2cc(C)n(-c3sc(C)c(C)c3C#N)c2C)C1=O | inactive | –
21 | COc1ccc(-n2c(C)nc3ccccc3c2=O)c([N+](=O)[O-])c1 | inconclusive: 89.1 µM [inhibitor, single point] | –
22 | C[C@@H]1O[C@@H](O[C@H]2C[C@@H](O)[C@]3(CO)[C@H]4[C@H](O)C[C@]5(C)[C@@H]([C@@H]6COC(=O)C6)CC[C@]5(O)[C@@H]4CC[C@]3(O)C2)[C@H](O)[C@H](O)[C@H]1O | inactive | –
23 | COCCNC(=O)c1c(NC(=O)c2ccc(Br)o2)n(Cc2ccccc2)c2nc3ccccc3nc12 | inactive | –

Row | Structure (SMILES) | Potency | activity change, negative = inhibition
24 | O=C(NC1CN2CCC1CC2)c1ccc(-c2ccc([N+](=O)[O-])cc2)o1 (centres undefined) | inconclusive: 89.1 µM [inhibitor, single point] | –
25 | O=C(O)Cn1cc(/C=C2\C(=O)NC(=O)N(Cc3ccco3)C2=O)c2ccccc21 | active: 10 µM | –
26 | Nc1c2c(nc3sc4c(c13)CCCC4)CCCCC2 | inconclusive: 31.6 µM [inhibitor, single point] | –
27 | CC/C(=N\N1CCCCCC1)c1c(O)n(-c2ccc(C)cc2)c(=O)[nH]c1=O | inconclusive: 100 µM [inhibitor, single point] | –
28 | O=C(O)c1cc[c]([Hg][Cl])cc1 | active: 14.1 µM | –
29 | COc1ccc(N2C(=O)NC(=O)/C(=C/c3ccc4c(c3)Cc3ccccc3-4)C2=O)cc1 | inactive | –
30 | CCCn1c2ccccc2c2nnc(SCC(=O)Nc3cccc(C(C)=O)c3)nc21 | inconclusive: 22.4 µM [inhibitor, partial curve] | –
31 | CCOC(=O)Cn1cc(C=C2C(=O)N(C)C(=O)N(C)C2=O)c2ccccc21 | inactive | –
32 | COc1ccccc1N=C1SCCCN1C | inactive | –
33 | CN(C)C(=O)Oc1ccc(Cl)c2ccccc12 | inactive | –
34 | Cc1ccc(-n2nc3c(N4CCC(C(=O)NCc5ccccc5Cl)CC4)nnc(C)c3c2C)cc1 | inconclusive: 1.78 µM [inhibitor, full curve, poor fit] | –
35 | CC(C)(C)c1csc(NC(=O)Nc2ccccc2)n1 | inconclusive: 79.4 µM [inhibitor, single point] | –
36 | N=c1c2c(n(Cc3ccc(Cl)cc3Cl)c3c1CCC3)CCCC2 | inconclusive: 1.26 µM [inhibitor, full curve] | –
37 | CC(=O)c1c(O)c(C)c(O)c(Cc2c(O)c3c(c(C(=O)/C=C/c4ccccc4)c2O)OC(C)(C)C=C3)c1O | inconclusive: 22.4 µM [inhibitor, single point] | –
38 | CCc1nnc(NC(=O)CSc2ccc(-c3ccco3)nn2)s1 | active: 14.1 µM | –
39 | c1ccc(CC2CCCCN2)cc1 (centres undefined) | inconclusive: 100 µM [inhibitor, single point] | –
40 | O=c1[nH]c(=S)[nH]c(O)c1N=Nc1ccc(S(=O)(=O)N2CCOCC2)cc1 | inconclusive: 39.8 µM [inhibitor, partial curve] | –
41 | Cc1cc(/C=C2\C(=O)NC(=O)N(c3cccc(F)c3)C2=O)c(C)n1-c1cc(C(=O)O)cc(C(=O)O)c1 | active: 22.4 µM | –
42 | COc1ccc(Nc2nc(N3CCN(C)CC3)nc3ccccc23)c(OC)c1 | inconclusive: 70.8 µM [inhibitor, single point] | –
43 | CCOC(=O)c1c(N)n(CCN2CCCCC2)c2nc3ccccc3nc12 | inconclusive: 56.2 µM [inhibitor, partial curve] | –
44 | C[C@]12CC[C@@H]3c4cc(O)c(O)cc4CC[C@H]3[C@@H]1CC[C@@H]2O | inconclusive: 2.24 µM [inhibitor, full curve, poor fit] | –
45 | COc1cccc(NC(=O)Cn2cc(C(=O)c3ccccc3)c3ccccc32)c1 | inconclusive: 0.158 µM [inhibitor, full curve, poor fit] | –
46 | O=P1(Nc2cccnc2)COc2ccccc2OC1 | inconclusive: 0.708 µM [inhibitor, full curve, poor fit] | –

Row | Structure (SMILES) | Potency | activity change, negative = inhibition
47 | COc1ccc(/C=N/N=C(/N)N[N+](=O)[O-])c(OC)c1 | inactive | –
48 | OC(Cn1c2ccccc2c2ccccc21)C[n+]1ccccc1 (centres undefined) | inactive | –
49 | CCOC(=O)c1c(C)n(Cc2ccccc2)c2ccc(OCC(O)Cn3nc(C)nc3C)cc12 (centres undefined) | inconclusive: 89.1 µM [inhibitor, single point] | –
50 | CC(C)c1oc(=O)cc2c1[C@@H](O)[C@H]1OC(=O)[C@@]3(C)CC[C@@H](O)[C@@]2(C)C13 (some centres undefined) | inconclusive: 79.4 µM [inhibitor, single point] | –
51 | CCOc1ccc(N2C(=O)NC(=O)/C(=C\c3cc(OC)c(OC)cc3[N+](=O)[O-])C2=O)cc1 | inactive | –
52 | Cc1ccc(Cl)cc1NC(=O)N(Cc1ccc2c(c1)OCO2)C1CCN(Cc2ccccc2)CC1 | inactive | –
53 | O=C1C=CC(=O)C=C1 | inconclusive: 31.6 µM [inhibitor, single point] | –
54 | CCN(CC)C(=O)c1ccc2c(c1)C1C=CCC1C(C(=O)O)N2 (centres undefined) | active: 35.5 µM | –
55 | Cc1cc(/C=C2\C(=O)NC(=O)N(c3ccc(Cl)cc3)C2=O)c(C)n1-c1sc2c(c1C#N)CCCC2 | inconclusive: 20 µM [inhibitor, full curve] | –
56 | COc1ccc(C(=O)C2CCCN(Cc3cnc(C)s3)C2)cc1OC (centres undefined) | inconclusive: 6.31 µM [inhibitor, full curve, poor fit] | –
57 | O=C(c1ccccc1)c1ccc(N=Nc2c(O)[nH]c(=O)[nH]c2=O)cc1 | inconclusive: 3.16 µM [inhibitor, full curve, poor fit] | –
58 | CCC(C)NC(=O)c1c(N)n(CC2CCCO2)c2nc3ccccc3nc12 (centres undefined) | inconclusive: 22.4 µM [inhibitor, partial curve] | –
59 | O=c1[nH]c(=O)n(-c2cccc3ccccc23)c(O)c1/C=N/N1CCCCC1 | – | inconclusive: -48.6% [inhibitor]
60 | COc1cccc(CNC(=O)CSc2ccc(-c3ccco3)nn2)c1 | inconclusive: 14.1 µM [inhibitor, full curve, poor fit] | –
61 | NC(CC(=O)O)C1CCCCC1 (centres undefined) | inactive | –
62 | C=C(C)CSc1nc2ncc(Cl)cc2[nH]1 | inconclusive: 39.8 µM [inhibitor, single point] | –
63 | C=CCSC1=N/C(=C\c2cc(OC)c3c(c2)OCO3)C(=O)S1 | active: 22.4 µM | –
64 | COc1ccc(N2C(=O)NC(=O)/C(=C\c3ccc([N+](=O)[O-])s3)C2=O)cc1 | inconclusive: 56.2 µM [inhibitor, partial curve, poor fit] | –
65 | O=c1c2ccccc2nc(-c2ccccc2)n1-c1ccccc1O | inconclusive: 11.2 µM [inhibitor, partial curve] | –
66 | CCCCn1c(O)c(/C(C)=N/NC(=O)Nc2ccccc2)c(=O)[nH]c1=O | inconclusive: 79.4 µM [inhibitor, single point] | –
67 | COc1ccc(CCn2c(O)c(/C=N/NC(=O)c3ccncc3)c(=O)[nH]c2=O)cc1OC | inactive | –
68 | S=c1[nH]nc(-c2ccco2)n1Cc1ccccc1 | active: 31.6 µM | –
69 | CC(=O)c1ccc2c(c1)C1C(Cl)C(Sc3ccccc3[N+](=O)[O-])CC1C(c1ccccc1[N+](=O)[O-])N2 (centres undefined) | inconclusive: 39.8 µM [inhibitor, single point] | –

Individual results from the results shown.
Under Potency, `CCOC(=O)c1c(C)n(Cc2ccccc2)c2ccc(OCC(O)Cn3nc(C)nc3C)cc12` (centres undefined) shows inconclusive: 89.1 µM [inhibitor, single point]
Under Potency, `CC(=O)c1ccc2c(c1)C1C(Cl)C(Sc3ccccc3[N+](=O)[O-])CC1C(c1ccccc1[N+](=O)[O-])N2` (centres undefined) shows inconclusive: 39.8 µM [inhibitor, single point]
Under Potency, `CCOc1ccc(N2C(=O)NC(=O)/C(=C\c3cc(OC)c(OC)cc3[N+](=O)[O-])C2=O)cc1` shows inactive
Under Potency, `COc1cccc(CNC(=O)CSc2ccc(-c3ccco3)nn2)c1` shows inconclusive: 14.1 µM [inhibitor, full curve, poor fit]
